According to PMC7913900:

Columns and labels:
[1] = biological target: T1, MBP-SnRK1A (rice (Oryza sativa L.)) (UniProt Q852Q2); experiment: pull-down; 15 ug SnRK1A-MBP or MBP on MBP-Tag Dextrin Resin at 4 C for 2 h, then 40 ug OsSAUR33-GST overnight at 4 C; washed with PBS + 1% Triton 100 and with PBS; western blot with anti-GST; both purified
T1 sequence: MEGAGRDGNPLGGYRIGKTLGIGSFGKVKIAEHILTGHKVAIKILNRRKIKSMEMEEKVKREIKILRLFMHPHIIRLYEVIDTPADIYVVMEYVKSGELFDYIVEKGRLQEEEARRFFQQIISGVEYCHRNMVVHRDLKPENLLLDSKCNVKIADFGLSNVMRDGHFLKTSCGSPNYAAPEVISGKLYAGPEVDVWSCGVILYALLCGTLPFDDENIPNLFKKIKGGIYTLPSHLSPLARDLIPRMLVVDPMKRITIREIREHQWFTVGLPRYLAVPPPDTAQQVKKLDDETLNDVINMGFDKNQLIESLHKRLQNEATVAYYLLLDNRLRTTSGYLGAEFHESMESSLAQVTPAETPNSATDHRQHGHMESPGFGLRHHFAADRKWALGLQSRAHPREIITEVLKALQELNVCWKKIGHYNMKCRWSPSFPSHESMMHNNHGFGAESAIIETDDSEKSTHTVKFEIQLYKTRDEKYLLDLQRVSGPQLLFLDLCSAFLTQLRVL

[2] = biological target: T2, nLUC-OsSnRK1A (rice (Oryza sativa L.)) (UniProt Q852Q2); experiment: split reporter; firefly luciferase complementation imaging; nLUC and cLUC fusions co-infiltrated into N. benthamiana leaves; 1 mM luciferin, cooled CCD imaging
T2 sequence: T1 sequence

[3] = biological target: T3, p2YN-OsSnRK1A (rice (Oryza sativa L.)) (UniProt Q852Q2); experiment: split reporter; BiFC with split YFP (p2YN, p2YC) co-expressed in N. benthamiana leaves; confocal microscopy after two days
T3 sequence: T1 sequence

binding [1]: binds
Substance: GST-OsSAUR33 (rice (Oryza sativa L.))

binding [2]: binds
Substance: cLUC-OsSAUR33 (rice (Oryza sativa L.))

binding [3]: binds
Substance: p2YC-OsSAUR33 (rice (Oryza sativa L.))

Results are given in words; binding and its absence hold for the method and conditions named. Binding can be weak; no strength is given. For part of these data: Tags and fused reporters may be left off the sequences shown. For part of these data: Binding seen in cells or lysates may run through a third protein. One block for each substance: values may come before it.
